These results are taken from PMC7660911.

By UniProt entry, the sequences of proteins in these tests, tags left out. Where a name states a change or a piece, a line headed by the entry shows the natural chain unless it says otherwise.
UniProt P40337: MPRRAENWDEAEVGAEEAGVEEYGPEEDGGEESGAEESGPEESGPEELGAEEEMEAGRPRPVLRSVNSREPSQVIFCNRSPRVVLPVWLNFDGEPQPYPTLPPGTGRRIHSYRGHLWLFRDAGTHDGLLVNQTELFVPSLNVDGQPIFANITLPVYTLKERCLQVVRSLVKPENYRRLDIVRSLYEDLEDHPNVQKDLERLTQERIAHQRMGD

The target in experiment [1] is GFP-pVHL213 expressed in fission yeast (human) (UniProt P40337). As to the kind of experiment: affinity purification with mass spectrometry; GFP-Trap MA beads on whole cell lysates of fission yeast expressing GFP-pVHL213 or GFP (20 mM Tris HCl pH 7.5, 150 mM NaCl, 2 mM EDTA, 0.5% Nonidet P40), 90 min at 4 C; on-bead digestion, LC-MS/MS.
Experiment [2] has as its target pVHL172-BirA(R118G)-HA fusion protein (human) (UniProt P40337). Description: proximity labelling; BioID with mass spectrometry: VHL-BirA(R118G)-HA baits expressed in HEK293 cells, biotin in the medium from 4 to 24 h after transfection; RIPA lysate; biotinylated proteins captured on streptavidin-Sepharose beads; on-bead digestion, LC-MS/MS, LFQ intensities.
Experiment [3] addresses pVHL213-BirA(R118G)-HA fusion protein (human) (UniProt P40337). Described as above.

Results are given in words; binding and its absence hold for the method and conditions named. In cells and extracts the contact can be indirect. These calls come from enrichment with a bait or labelling near it, and not all partners need be listed.

B1: Pfd5 (fission yeast prefoldin subunit 5) (protein, UniProt O94307 1-154)
chain: MAEGNKAVDLTSLSLEQLSEVIKQLDSELEYLSTSYGQLGRAQLKFRECLANVNDAVRAENDGKEVLVPLTSSLYVPGKLNLGNSKLLVDIGTGYYVEKSAGEATEYYKRKCEYLASSIENLNNAIDAKSVQIRAVQNIMQQKATATTAATKSS
Take B1: the binding result in experiment [1] is reported as “binds”.

B2: T-complex protein 1 subunit beta (protein, UniProt P78371 1-535)
chain: MASLSLAPVNIFKAGADEERAETARLTSFIGAIAIGDLVKSTLGPKGMDKILLSSGRDASLMVTNDGATILKNIGVDNPAAKVLVDMSRVQDDEVGDGTTSVTVLAAELLREAESLIAKKIHPQTIIAGWREATKAAREALLSSAVDHGSDEVKFRQDLMNIAGTTLSSKLLTHHKDHFTKLAVEAVLRLKGSGNLEAIHIIKKLGGSLADSYLDEGFLLDKKIGVNQPKRIENAKILIANTGMDTDKIKIFGSRVRVDSTAKVAEIEHAEKEKMKEKVERILKHGINCFINRQLIYNYPEQLFGAAGVMAIEHADFAGVERLALVTGGEIASTFDHPELVKLGSCKLIEEVMIGEDKLIHFSGVALGEACTIVLRGATQQILDEAERSLHDALCVLAQTVKDSRTVYGGGCSEMLMAHAVTQLANRTPGKEAVAMESYAKALRMLPTIIADNAGYDSADLVAQLRAAHSEGNTTAGLDMREGTIGDMAILGITESFQVKRQVLLSAAEAAEVILRVDNIIKAAPRKRVPDHHPC
B2: the binding entry in experiment [2] and in experiment [3] was “binds” each time.

B3: Mdj1 (protein, UniProt P87239 67-528)
chain: NFSYHARCFHATRAVWEMTDPYKTLGVSKSASASEIKSAYYKLAKQYHPDANPDKAAQDKFVEIKQAYEVLQDPKKKKAFDTYGAGAFKNGEFTGGDFEGFQNGFAGASSFSSGFPGFNFEDLFGFSSRGPQARRNTSFDVFVGEDIEASITIDFMEAVRGAKKDLSYSVSSTCSSCHGSGLQPGSHKSTCFACKGTGQRLHFIPPSFHMQTTCDSCGGTGTTIPPNSACRSCMGSGTVRERKTVSIDIPPGIDDNTVLRVMGAGNDASTAKGGPNAKSRPGDLFATIHVRKHPFFVREGTNVTYNAKIPMTTAALGGTLRVPTLTGNVDLRVSPGTSTGDRITMAGKGIRKVNTSRYGNFYVNFEVTIPKILSPHERSLLEQLADALNDSTARRTQSSPSGTNSSTSTSSTSSKHSTGISTEPTTGEENKQDGSVGGFFKRAFRRLHPDEDQNPKKDESSS
Turning to B3, the binding entry in experiment [1] is “binds”.
